Test results as given in PubChem BioAssay AID623959 (National Center for Advancing Translational Sciences (NCATS), 2012).
The whole screen tested about 1,400 compounds, of which fewer than 10 were called active. About 8% were inconclusive and are not listed. Calls follow the shape of the dose curve; as a rule, active = well fitted curve in the direction sought with a large enough effect; inconclusive = small, poorly fitted or top-dose-only effect, or another doubt; inactive = no such curve, though single readings can be large or run the other way. This is one part of the list.

Protein sequences, listed by entry. Tags and fused reporters are not part of them.
UniProt Q8NER1, whole entry, looked up: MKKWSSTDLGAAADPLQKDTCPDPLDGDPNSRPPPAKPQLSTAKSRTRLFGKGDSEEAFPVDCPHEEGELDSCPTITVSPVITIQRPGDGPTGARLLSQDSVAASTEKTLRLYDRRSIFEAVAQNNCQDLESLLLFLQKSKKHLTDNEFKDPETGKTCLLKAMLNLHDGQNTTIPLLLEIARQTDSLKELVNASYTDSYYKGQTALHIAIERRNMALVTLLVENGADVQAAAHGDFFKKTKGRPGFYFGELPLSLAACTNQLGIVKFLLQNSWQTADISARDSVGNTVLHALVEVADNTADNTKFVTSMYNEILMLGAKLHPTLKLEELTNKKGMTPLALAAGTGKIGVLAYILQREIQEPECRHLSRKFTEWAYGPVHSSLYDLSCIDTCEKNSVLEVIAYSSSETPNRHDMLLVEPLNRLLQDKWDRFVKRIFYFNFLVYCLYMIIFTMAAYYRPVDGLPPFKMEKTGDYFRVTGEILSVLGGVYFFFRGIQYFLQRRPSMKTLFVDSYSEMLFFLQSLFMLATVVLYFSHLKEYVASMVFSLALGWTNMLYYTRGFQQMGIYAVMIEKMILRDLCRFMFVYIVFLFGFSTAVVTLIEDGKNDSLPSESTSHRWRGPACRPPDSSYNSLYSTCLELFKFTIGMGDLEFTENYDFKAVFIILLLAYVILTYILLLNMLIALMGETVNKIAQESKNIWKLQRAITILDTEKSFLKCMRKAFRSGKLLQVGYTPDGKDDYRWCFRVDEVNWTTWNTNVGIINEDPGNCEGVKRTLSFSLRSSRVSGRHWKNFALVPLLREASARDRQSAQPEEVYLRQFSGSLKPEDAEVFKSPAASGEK

target: Transient receptor potential cation channel subfamily V member 1 (Homo sapiens) (UniProt Q8NER1); experiment: qHTS Assay for Compounds that Act as Potentiators of the Vanilloid Receptor 1: Hit Validation; settings: TRPV1-expressing cells, Fluo-8 calcium influx, capsaicin EC20; at 42.1 µM (top of the series); also: % of control where 0% means no effect
From the text: The transient receptor potential ion channel, family V, number 1, (TRPV1) is one of the most important molecular transducers of painful stimuli and a potential target for analgesic drug development. Although recent clinical trials with orthosteric antagonists have not produced a successful drug because of a hyperthermia side effect and their tendency to block thermal noxious pain, this ion channel is undeniably well placed in the pain pathway, and the idea of blocking pain signals before they enter the CNS is an excellent concept and of proven efficacy when TRPV1 agonists are used. We propose a new approach involving allosteric modulation to impose an activity-dependent constraint within the context of inflammation and tissue damage that would alter the responsiveness of the channel in a way that an orthosteric vanilloid antagonist cannot achieve. We believe that the allosteric modulator approach has not been explored for this target. The main goal of this proposal is to identify additional, new, potent allosteric modulators of TRPV1 that can be used to investigate TRPV1 function. Our recent report provides evidence of proof of concept, but the compounds are just at the edge of utility in terms of potency. […] The question of whether they can be used as analgesic agents is complex, but if suitable compounds are identified then testing for analgesic properties will be conducted. Compounds identified as agonists were re-tested in the primary screen for hit validation. NIH Chemical Genomics Center [NCGC] NIH Molecular Libraries Probe Centers Network [MLPCN] MLPCN Grant: MH089480 Assay Submitter (PI): Michael Iadarola, National Institute of Dental and Cranofacial Research
Upon TRPV1 activation in TRPV1 cells, the channel opens and extracellular cations flow through the channel into the cytosol. A calcium binding dye (Fluo-8) becomes fluorescent when bound to calcium. This dye is pre-loaded into cells and is used as a marker for calcium influx. The amount of accumulated calcium is precisely quantified using the FDSS kinetic reader and the calcium dye. For the HTS assay, freshly prepared cells are plated at a density of 2000/well in 3 ul medium in 1536-well plates and cultured overnight at 35.5C. Cells will be loaded with 1 ul of the homogeneous calcium dye (ABD Bioquest) at room temperature for 40 to 90 minutes. Plates will be loaded into the FDSS kinetic reader and a 1 sec / cycle for 10 second baseline signal will be measured. Compound library will then be added with a pintool at 23 nl and measured kinetically for 3 minutes. This portion of the read is considered the agonist portion of the screen. Following the 3 minutes of incubation, an on board pipettor will deliver 1 ul of capsaicin for a final concentration equal to the EC20. Signal will be measured kinetically for an additional 2 minutes. This portion of the read is considered the allosteric enhancer portion of the screen. The FDSS reader has a standard filter set capable of measuring calcium bound Fluo-8 (ex=480 and em=520 nm).

| Structure (SMILES) | activity change, positive = potentiation |
| --- | --- |
| CN1CCN(c2ccc(N)cc2Cl)CC1 | inactive: -0.625% |
| COc1ccc(/C=N\N=C(N)N)cc1 | inactive: -4.03% |
| Cc1ncoc1C(=O)NCCC(c1ccccc1)c1ccccc1 | inactive: -38.2% |
| NC(=O)Cn1cc(C(=O)c2ccccc2)c2ccccc21 | inactive: -8.42% |
| CCN1CC2C3CCC(C)(O3)C2C1 (stereo not given) | inactive: 1.5% |
| O=C(O)CCn1cc(C=C2C(=O)NC(=O)NC2=O)c(-c2cc3ccccc3oc2=O)n1 | inactive: -2.95% |
| CCCCn1c(N)c(C(=O)OCCOC)c2nc3ccccc3nc21 | inactive: -25% |
| Cc1ccc(Cn2nc(C(=O)Nc3ccc(Br)cc3)cc2C)cc1 | inactive: -38.4% |
| Cc1cc(C(=O)CS(=O)(=O)c2ccc(F)cc2)cc(C)c1OC(=O)N(C)C | inactive: -10.7% |
| O=P(Oc1ccccc1)(Oc1ccccc1)C(O)c1ccc(Cl)cc1 (stereo not given) | inactive: -6.55% |
| CN(C)C1C(=O)C(C(N)=O)=C(O)C2(O)C(=O)C3=C(O)c4c(O)cccc4C(C)(O)C3C(O)C12 (stereo not given) | inactive: 5.12% |
| N#Cc1ccc(Cn2cc(C(=O)c3ccco3)c3ccccc32)cc1 | inactive: -6.34% |
| O=C1C2CCN(CC2)[C@@H]1Cc1ccc2ccccc2c1O | inactive: 8.84% |
| O=C(CNC(=O)c1cccc(Cl)c1)Nc1ccc(Br)cc1C(=O)c1ccccc1 | inactive: -10.5% |
| C[n+]1c(-c2ccccc2)cc(CCCCc2cc(-c3ccccc3)[n+](C)c(-c3ccccc3)c2)cc1-c1ccccc1 | inactive: 1.26% |
| COc1ccc(Cl)cc1N=Cc1c(O)n(C)c(=O)n(C)c1=O | inactive: -4.58% |
| O=C(Cn1nc(-c2ccc(Cl)cc2)ccc1=O)N1CCC2(CC1)OCCO2 | inactive: -9.23% |
| COC(=O)Cn1cc(C=C2C(=O)N(C)C(=O)N(C)C2=O)c2ccccc21 | inactive: -0.412% |
| Cc1c(C(c2ccc(Cl)cc2Cl)c2c(O)c3ccccc3oc2=O)c(=O)n(-c2ccccc2)n1C (stereo not given) | inactive: -10.2% |
| O=[N+]([O-])NC1=NCCN1Cc1ccc(Cl)nc1 | inactive: -7.67% |
| C/C=C(\C)C(=O)N[C@@H](c1ccccc1)[C@@H](O)C(=O)O[C@H]1C[C@@]2(O)[C@@H](OC(=O)c3ccccc3)C3[C@](C)(C(=O)[C@H](O)C(=C1C)C2(C)C)[C@@H](O)C[C@H]1OC[C@@]31OC(C)=O (stereo not given in full) | inactive: -5.57% |
| CCCCCCCCC(=O)NCc1ccc(O)c(OC)c1 | inactive: -38.8% |
| COc1cc(CNC(=O)CCCC/C=C/C(C)C)ccc1O | inactive: -38.4% |
| O=S(=O)(c1ccc(F)cc1)N1CN2CCN(C2)C1 | inactive: -7.98% |
| O=[P+](Cc1ccccc1)Cc1ccccc1 | inactive: -8.17% |
| CCc1ccc(NP(=O)(Oc2ccccc2F)Oc2ccccc2F)cc1 | inactive: -3.25% |
| N/C(=N\[N+](=O)[O-])N1CCN(C(=O)c2ccccc2)CC1 | inactive: -3.88% |
| CCCCCn1c(=O)c(C(=O)NCc2ccccc2)c(O)c2ccccc21 | inactive: -4.39% |
| COc1ccc(-n2c(/C=C3\C(=O)Nc4ccccc43)nc3ccccc3c2=O)cc1 | inactive: 11.8% |
| CCn1cc(C(=O)NCc2ccccc2)c2ccccc21 | inactive: 2.86% |

3 entries already listed, sorted by heavy-atom count, ascending.

| Structure (SMILES) | activity change, positive = potentiation |
| --- | --- |
| COc1ccc(Cl)cc1N=Cc1c(O)n(C)c(=O)n(C)c1=O | inactive: -4.58% |
| CCCCn1c(N)c(C(=O)OCCOC)c2nc3ccccc3nc21 | inactive: -25% |
| O=C(Cn1nc(-c2ccc(Cl)cc2)ccc1=O)N1CCC2(CC1)OCCO2 | inactive: -9.23% |
